# According to PMC5105134:
# Amino acid sequences for entries named in this document (tags omitted). A change or cut given only in a name is not applied to a line headed by its entry.
# UniProt P13498: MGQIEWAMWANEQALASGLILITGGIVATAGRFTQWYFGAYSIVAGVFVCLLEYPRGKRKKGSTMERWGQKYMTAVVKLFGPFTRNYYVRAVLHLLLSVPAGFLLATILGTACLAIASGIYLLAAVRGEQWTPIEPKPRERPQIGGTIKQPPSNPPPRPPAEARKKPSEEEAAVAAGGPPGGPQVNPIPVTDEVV
# UniProt Q9QZC1: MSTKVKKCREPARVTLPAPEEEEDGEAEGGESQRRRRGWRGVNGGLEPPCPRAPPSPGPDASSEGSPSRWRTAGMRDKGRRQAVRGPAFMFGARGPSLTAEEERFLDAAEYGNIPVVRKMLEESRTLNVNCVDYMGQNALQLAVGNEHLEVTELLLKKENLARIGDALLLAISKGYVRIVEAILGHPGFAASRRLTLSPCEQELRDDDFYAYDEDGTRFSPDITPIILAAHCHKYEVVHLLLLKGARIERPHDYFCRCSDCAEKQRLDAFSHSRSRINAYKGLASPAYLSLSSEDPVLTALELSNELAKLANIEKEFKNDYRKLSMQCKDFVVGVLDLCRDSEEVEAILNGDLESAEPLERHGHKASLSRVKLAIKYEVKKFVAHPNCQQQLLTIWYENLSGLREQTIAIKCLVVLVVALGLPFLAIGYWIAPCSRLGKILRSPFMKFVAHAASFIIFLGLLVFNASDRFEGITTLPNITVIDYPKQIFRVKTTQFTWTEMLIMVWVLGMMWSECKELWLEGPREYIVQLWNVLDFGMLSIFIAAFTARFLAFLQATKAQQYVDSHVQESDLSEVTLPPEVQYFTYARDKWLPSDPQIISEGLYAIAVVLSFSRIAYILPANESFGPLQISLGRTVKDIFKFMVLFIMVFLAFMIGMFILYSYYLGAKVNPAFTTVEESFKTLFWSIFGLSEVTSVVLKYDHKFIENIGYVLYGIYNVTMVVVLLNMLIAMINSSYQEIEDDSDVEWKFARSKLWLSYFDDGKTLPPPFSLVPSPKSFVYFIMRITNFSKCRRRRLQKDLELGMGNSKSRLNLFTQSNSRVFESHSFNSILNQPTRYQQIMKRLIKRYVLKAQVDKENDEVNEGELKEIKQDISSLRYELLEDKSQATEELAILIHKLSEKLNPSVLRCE
# No constants are given. Whether binding was seen depends on the method and setting. Binding seen in cells or lysates may run through a third protein. Binding calls can cover weak binding; strength is not graded here. For some assays here: Where a sequence is shown, tags or fusion partners need not be part of it.
# Assays:
# [1] = molecular target: myc-tagged p22phox (myc-p22phox) (UniProt P13498); assay: co-IP; CHO cells (lacking endogenous p22phox) co-expressing TRPC3-GFP, Flag-Nox2 and myc-p22phox; precipitating antibody of each panel not given
# [2] = molecular target: T1, flag-tagged Nox2 (Flag-Nox2) (UniProt P04839); assay: as above
# T1 sequence: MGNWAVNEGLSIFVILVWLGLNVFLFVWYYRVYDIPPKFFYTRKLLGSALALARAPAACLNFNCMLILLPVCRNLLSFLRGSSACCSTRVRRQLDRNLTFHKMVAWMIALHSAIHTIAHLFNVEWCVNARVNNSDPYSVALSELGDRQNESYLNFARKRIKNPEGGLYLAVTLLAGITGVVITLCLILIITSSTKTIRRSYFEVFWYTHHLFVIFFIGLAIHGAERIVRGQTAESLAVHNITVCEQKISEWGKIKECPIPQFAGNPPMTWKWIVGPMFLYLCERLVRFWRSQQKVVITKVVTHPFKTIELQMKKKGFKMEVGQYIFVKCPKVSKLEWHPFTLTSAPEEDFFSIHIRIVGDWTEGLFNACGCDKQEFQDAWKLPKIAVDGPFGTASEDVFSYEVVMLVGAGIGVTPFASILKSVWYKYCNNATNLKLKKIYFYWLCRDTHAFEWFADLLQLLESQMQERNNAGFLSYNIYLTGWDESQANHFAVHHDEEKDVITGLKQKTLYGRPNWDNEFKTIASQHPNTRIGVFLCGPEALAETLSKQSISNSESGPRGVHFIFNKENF
# [3] = molecular target: T1, flag-tagged Nox2 (Flag-Nox2); assay: co-IP; HEK293 cells; co-immunoprecipitation of TRPC3 with Nox2 in the presence or absence of co-expressed C3-C fragment
# [4] = molecular target: T1, flag-tagged Nox2 (Flag-Nox2); assay: co-IP; HEK293 cells co-expressing TRPC3-GFP and Flag-Nox2; lysis in 20 mM Tris-HCl pH 7.5, 1% Triton X-100, 150 mM NaCl; immunoprecipitation with anti-flag M2 Affinity Gel, western blot
Substance,binding [1],binding [2],binding [3],binding [4]
EGFP-fused TRPC3 (TRPC3-GFP) (from UniProt Q9QZC1),binds,binds,binds,binds
GFP-fused Nox2-interacting C-terminal fragment of TRPC3 (C3-C fragment) (domain or fragment),–,–,binds,–
